Test results reported in article doi:10.1101/409508.
No constants are given. Whether binding was seen depends on the method and setting. Binding seen in cells or lysates may run through a third protein. Some results given as binding are weak or reduced against the parent protein; the word gives no strength.

Amino acid sequences for entries named in this document (tags omitted). A change or cut given only in a name is not applied to a line headed by its entry.
UniProt P54619: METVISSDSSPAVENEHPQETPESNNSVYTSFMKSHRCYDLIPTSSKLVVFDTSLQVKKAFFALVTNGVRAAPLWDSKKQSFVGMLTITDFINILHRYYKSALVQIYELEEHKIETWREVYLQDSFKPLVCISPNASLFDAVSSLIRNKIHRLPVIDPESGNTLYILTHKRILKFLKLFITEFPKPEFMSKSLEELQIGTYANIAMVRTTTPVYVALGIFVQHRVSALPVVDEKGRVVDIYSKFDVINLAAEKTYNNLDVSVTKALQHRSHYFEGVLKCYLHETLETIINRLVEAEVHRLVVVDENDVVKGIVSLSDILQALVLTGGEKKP
UniProt P78527: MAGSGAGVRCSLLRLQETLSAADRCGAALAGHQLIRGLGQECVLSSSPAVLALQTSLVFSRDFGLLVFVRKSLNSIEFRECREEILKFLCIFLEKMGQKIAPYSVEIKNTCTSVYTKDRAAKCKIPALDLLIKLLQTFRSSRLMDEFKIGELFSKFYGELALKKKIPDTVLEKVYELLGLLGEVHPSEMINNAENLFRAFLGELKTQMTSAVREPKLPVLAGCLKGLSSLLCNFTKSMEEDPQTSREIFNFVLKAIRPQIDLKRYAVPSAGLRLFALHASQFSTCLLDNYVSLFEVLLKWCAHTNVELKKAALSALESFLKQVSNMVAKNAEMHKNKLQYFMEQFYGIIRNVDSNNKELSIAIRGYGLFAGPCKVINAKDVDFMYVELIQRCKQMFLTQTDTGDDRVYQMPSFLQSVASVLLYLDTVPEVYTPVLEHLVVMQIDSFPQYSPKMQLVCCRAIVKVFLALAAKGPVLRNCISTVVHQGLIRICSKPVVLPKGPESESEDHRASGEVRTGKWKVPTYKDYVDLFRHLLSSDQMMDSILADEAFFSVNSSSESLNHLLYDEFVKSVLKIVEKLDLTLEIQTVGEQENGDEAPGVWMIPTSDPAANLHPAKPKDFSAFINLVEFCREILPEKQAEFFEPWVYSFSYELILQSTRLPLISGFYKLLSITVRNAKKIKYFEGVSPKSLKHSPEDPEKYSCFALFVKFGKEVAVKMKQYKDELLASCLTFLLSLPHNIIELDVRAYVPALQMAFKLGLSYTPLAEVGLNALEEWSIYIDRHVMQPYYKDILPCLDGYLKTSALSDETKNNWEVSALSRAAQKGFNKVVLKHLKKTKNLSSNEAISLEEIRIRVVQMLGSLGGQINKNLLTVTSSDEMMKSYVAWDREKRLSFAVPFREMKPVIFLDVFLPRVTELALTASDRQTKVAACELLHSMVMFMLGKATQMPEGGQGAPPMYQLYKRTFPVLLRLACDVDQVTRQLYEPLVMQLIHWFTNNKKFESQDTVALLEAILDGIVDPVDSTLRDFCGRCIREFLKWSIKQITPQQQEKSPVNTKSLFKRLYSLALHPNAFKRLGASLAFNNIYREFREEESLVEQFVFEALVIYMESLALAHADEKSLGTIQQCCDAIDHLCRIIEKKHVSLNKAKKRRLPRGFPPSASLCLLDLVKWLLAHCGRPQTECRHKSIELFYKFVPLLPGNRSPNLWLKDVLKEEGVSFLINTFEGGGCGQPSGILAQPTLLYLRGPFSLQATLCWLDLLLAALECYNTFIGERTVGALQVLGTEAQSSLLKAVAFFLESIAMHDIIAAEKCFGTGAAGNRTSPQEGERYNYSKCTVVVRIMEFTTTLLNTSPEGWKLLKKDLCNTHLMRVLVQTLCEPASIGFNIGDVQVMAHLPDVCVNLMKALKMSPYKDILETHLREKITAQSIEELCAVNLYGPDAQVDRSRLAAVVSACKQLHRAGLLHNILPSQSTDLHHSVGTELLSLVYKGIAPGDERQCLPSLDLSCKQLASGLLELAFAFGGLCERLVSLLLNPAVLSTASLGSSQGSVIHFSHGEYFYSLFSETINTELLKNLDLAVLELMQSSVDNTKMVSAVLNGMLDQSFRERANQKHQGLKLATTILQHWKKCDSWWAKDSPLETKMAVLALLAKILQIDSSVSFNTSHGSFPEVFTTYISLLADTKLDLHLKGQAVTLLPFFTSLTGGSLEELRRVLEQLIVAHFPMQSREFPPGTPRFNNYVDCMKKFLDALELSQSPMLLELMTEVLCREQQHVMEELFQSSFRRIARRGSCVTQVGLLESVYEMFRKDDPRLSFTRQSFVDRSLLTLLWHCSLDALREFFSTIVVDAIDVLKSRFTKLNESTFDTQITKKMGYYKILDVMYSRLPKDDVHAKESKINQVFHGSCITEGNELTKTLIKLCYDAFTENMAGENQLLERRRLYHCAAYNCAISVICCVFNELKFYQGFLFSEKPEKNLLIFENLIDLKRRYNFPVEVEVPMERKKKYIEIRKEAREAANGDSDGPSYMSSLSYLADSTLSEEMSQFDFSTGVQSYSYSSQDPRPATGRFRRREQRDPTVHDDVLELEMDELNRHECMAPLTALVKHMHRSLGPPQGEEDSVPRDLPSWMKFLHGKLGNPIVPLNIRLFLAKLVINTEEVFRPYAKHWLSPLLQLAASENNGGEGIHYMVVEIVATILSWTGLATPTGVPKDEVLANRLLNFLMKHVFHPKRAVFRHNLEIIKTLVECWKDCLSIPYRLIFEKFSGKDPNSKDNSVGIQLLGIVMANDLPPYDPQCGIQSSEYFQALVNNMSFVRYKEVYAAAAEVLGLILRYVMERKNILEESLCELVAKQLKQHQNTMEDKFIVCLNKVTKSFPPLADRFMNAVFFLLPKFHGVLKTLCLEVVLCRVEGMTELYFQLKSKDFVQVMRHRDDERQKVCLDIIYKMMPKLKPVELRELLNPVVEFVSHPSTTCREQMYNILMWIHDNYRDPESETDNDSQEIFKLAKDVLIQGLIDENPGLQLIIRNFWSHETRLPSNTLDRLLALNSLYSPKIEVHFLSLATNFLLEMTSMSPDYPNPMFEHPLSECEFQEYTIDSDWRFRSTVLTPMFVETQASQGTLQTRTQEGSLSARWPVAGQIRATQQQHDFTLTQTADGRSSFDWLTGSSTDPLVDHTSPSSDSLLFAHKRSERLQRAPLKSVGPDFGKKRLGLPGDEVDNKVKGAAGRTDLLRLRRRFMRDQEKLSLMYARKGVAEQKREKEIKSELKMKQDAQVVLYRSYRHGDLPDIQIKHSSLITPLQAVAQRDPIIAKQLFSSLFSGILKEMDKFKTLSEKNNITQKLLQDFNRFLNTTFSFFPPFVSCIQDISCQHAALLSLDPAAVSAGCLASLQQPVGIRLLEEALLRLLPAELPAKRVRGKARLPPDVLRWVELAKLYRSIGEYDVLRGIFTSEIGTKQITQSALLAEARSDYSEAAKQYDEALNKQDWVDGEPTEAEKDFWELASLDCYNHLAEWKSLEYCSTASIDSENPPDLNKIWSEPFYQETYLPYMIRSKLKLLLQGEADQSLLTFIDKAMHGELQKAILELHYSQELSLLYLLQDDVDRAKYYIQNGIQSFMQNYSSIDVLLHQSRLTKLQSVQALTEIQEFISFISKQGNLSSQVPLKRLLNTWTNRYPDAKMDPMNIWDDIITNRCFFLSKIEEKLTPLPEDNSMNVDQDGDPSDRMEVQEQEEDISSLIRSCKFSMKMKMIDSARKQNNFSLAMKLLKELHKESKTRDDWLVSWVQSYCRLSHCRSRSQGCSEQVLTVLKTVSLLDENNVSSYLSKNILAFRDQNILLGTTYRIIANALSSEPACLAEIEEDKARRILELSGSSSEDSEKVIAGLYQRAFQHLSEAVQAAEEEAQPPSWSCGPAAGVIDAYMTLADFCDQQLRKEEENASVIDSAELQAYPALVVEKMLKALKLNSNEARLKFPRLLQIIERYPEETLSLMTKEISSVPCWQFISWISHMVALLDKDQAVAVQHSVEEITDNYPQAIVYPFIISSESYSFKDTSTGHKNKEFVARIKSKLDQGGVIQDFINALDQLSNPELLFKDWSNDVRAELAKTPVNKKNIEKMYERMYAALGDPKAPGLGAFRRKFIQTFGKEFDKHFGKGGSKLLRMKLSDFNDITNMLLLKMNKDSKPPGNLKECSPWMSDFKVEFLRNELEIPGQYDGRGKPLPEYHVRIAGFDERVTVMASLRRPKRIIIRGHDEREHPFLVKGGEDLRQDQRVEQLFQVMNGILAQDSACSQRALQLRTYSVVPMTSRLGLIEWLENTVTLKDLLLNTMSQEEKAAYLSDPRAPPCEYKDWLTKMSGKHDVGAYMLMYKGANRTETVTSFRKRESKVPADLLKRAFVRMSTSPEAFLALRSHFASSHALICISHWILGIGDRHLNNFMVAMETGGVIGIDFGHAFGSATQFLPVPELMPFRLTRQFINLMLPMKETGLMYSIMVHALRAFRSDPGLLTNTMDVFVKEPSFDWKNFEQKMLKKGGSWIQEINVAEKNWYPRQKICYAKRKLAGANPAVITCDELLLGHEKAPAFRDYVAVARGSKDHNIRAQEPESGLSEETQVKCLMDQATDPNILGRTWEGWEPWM

Columns and labels:
Assay in all cases: co-IP
[1] = target: T1, Unc-51-like kinase 1 (ULK1) (human (endogenous in U2OS)) (UniProt O75385)
T1 sequence: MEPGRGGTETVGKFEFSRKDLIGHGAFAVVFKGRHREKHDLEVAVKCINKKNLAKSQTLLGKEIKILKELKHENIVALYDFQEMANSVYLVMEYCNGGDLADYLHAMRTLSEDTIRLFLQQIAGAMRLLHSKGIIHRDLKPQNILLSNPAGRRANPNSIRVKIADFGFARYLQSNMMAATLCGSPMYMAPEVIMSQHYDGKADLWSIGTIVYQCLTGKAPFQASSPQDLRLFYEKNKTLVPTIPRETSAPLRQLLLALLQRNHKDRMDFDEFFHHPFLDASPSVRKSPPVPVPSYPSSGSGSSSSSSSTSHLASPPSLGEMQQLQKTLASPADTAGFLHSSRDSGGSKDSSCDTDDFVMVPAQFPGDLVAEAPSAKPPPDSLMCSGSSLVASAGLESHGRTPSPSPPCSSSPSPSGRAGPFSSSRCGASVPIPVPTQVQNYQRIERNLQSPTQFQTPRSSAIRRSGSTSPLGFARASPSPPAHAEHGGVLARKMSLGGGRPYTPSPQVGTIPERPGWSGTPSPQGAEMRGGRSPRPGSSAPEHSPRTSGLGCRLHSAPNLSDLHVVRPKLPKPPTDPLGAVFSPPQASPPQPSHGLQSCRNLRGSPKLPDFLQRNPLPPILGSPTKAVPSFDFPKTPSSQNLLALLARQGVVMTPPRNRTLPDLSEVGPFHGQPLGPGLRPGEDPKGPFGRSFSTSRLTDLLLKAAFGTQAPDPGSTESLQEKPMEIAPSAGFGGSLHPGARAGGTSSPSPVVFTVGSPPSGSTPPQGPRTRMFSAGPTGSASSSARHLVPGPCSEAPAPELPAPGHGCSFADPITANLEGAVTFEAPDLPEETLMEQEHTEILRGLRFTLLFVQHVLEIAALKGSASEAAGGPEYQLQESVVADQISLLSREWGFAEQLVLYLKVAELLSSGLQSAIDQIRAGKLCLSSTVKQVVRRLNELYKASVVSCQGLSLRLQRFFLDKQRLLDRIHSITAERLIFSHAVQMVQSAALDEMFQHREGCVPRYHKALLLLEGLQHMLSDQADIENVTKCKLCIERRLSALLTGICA

[2] = target: AMPKγ1-mCh-Flag S192A/T284A (AA mutant) (UniProt P54619)
[3] = target: AMPKγ1-mCh-Flag wild type (UniProt P54619)

Measured: binding

catalytic subunit of DNA-dependent protein kinase (DNA-PKcs) (from UniProt P78527 1-4128)
binds: all assays above
